From US20220033784A1 (priority 2020, published 2022)
Changes are numbered by the printed parent chain. Names may count otherwise.

B1: Fc-IL2-K35N-T41N:K43T (protein)
chain: APTSSSTKKTQLQLEHLLLDLQMILNGINNYKNPNLTRMLNFTFYMPKKATELKHLQCLEEELKPLEEVLNLAQSKNFHLRPRDLISNINVIVLELKGSETTFMCEYADETATIVEFLNRWITFCQSIISTLT
B2: Fc-IL2-T41N:K43T-E62N:K64T (protein)
chain: B1 chain with N35K, E62N, K64T
B3: Fc-IL2-K43N:Y45T-E62N:K64T (protein)
chain: B1 chain with N35K, N41T, T43N, Y45T, E62N, K64T
B4: Fc-IL2-R38N:L40T-L72N:Q74T (protein)
chain: B1 chain with N35K, R38N, L40T, N41T, T43K, L72N, Q74T
B5: Fc-IL2-K43N:Y45T-L72N:Q74T (protein)
chain: B1 chain with N35K, N41T, T43N, Y45T, L72N, Q74T
B6: Fc-IL2-R38N:L40T-T41N:K43T (protein)
chain: B1 chain with N35K, R38N, L40T
B7: Fc-IL2-R38N:L40T-E62N:K64T (protein)
chain: B1 chain with N35K, R38N, L40T, N41T, T43K, E62N, K64T
B8: Fc-IL2-R38N:L40T-K43N:Y45T (protein)
chain: B1 chain with N35K, R38N, L40T, N41T, T43N, Y45T
B9: Fc-IL2-T41N:K43T-L72N:Q74T (protein)
chain: B1 chain with N35K, L72N, Q74T

What was measured:
[1] = Glycosylation of introduced sites, microfluidic electrophoresis after PNGase F; type: physicochemical; conditions: for Microfluidic Electrophoresis Site 1 (%): glycosylation of first listed potential glycosylation site; for Microfluidic Electrophoresis Site 2 (%): glycosylation of second listed site, partial occupancy of dual glycokines assigned based on single site occupancy results
[2] = Number of N-glycans by mass spectrometry; type: physicochemical; conditions: for Mass Spectrometry IL-2 N-Glycan: glycans attributed to the fused IL-2; for Mass Spectrometry Total N-Glycan: includes the 2 Asn297 glycans of the Fc domain

| Molecule | Microfluidic Electrophoresis Site 1 (%) [1] [%] | Mass Spectrometry IL-2 N-Glycan [2] | Mass Spectrometry Total N-Glycan [2] | Microfluidic Electrophoresis Site 2 (%) [1] [%] |
| --- | --- | --- | --- | --- |
| Fc-IL2-E62N:K64T | 0 | 0 | 2 | – |
| Fc-IL2-E68N:L70T | 0 | 0 | 2 | – |
| Fc-IL2-F42N:F44T | 0 | 0 | 2 | – |
| Fc-IL2-K35N | 31 | – | – | – |
| Fc-IL2-K43N:Y45T | >99 | 1 | 3 | – |
| Fc-IL2-L72N:Q74T | 94 | 1 | 3 | – |
| Fc-IL2-R38N:L40T | >99 | 1 | 3 | – |
| Fc-IL2-T41N:K43T | >99 | 1 | 3 | – |
| B1 | 38 | – | – | >99 |
| B2 | >99 | 1 | 3 | 0 |
| B3 | >99 | 1 | 3 | 0 |
| B4 | >99 | 2 | 4 | >99 |
| B5 | >99 | 2 | 4 | >99 |
| B6 | >99 | 1 | 3 | – |
| B7 | >99 | 1 | 3 | 0 |
| B8 | >99 | 2 | 4 | >99 |
| B9 | >99 | 2 | 4 | >99 |
